Assay results: PubChem BioAssay (EPA / NIEHS)
For some of these results: All entries are inconclusive by the source's own rule. Clear calls are listed elsewhere. Where the call is inconclusive, the potency comes from a doubtful curve fit. For some of these results: Inconclusive results, whose numbers are uncertain, are shown with a selection of clear calls. Calls of active or inactive are those of the source. The calls were made as follows: active = hit-call score of the fitted dose curve at least 0.9, where 1 is the maximum; inconclusive = response in the unintended direction; inactive = score below 0.9.

The chains behind the UniProt entries cited, without tags or fusion partners. Where a name states a change or a piece, a line headed by the entry shows the natural chain unless it says otherwise.
UniProt P04798: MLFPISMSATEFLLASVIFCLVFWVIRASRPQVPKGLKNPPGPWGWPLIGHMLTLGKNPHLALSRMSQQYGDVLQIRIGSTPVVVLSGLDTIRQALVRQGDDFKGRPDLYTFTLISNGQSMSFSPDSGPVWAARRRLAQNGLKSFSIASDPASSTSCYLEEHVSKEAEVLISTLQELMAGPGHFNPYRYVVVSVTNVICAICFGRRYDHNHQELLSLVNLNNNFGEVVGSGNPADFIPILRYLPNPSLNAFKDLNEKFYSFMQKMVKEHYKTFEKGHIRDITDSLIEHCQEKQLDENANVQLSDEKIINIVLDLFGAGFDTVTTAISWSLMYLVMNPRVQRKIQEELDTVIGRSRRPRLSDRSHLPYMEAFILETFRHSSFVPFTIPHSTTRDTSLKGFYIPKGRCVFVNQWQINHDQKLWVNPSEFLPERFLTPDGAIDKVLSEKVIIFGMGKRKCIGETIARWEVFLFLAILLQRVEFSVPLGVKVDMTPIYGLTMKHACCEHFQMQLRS
UniProt P49662: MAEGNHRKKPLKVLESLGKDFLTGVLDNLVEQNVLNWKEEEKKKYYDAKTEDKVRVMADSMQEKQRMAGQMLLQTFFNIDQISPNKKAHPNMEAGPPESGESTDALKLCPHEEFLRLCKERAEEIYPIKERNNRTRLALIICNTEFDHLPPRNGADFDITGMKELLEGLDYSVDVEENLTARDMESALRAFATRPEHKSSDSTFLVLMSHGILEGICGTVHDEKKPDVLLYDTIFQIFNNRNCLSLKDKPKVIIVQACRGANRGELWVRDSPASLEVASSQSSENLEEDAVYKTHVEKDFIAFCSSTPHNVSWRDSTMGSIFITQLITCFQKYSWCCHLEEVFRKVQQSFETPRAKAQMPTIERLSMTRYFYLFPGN
UniProt P24666: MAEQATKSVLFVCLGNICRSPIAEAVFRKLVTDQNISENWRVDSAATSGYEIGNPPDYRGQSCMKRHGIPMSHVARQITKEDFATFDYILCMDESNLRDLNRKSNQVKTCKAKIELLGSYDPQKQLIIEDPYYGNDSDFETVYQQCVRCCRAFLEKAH
UniProt P08684, whole entry, looked up: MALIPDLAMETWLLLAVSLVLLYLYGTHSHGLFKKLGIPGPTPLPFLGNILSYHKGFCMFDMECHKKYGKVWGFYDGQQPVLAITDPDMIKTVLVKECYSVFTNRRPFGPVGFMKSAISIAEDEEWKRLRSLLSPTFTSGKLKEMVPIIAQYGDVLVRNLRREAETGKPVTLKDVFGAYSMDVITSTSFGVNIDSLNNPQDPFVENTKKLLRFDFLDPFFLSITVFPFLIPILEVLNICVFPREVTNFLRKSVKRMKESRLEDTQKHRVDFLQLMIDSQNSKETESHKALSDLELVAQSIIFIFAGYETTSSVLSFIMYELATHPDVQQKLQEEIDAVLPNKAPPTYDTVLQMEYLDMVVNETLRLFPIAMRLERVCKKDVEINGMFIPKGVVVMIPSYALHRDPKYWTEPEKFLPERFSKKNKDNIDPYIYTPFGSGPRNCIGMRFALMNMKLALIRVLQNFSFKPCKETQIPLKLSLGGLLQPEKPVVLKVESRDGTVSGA
UniProt P42574: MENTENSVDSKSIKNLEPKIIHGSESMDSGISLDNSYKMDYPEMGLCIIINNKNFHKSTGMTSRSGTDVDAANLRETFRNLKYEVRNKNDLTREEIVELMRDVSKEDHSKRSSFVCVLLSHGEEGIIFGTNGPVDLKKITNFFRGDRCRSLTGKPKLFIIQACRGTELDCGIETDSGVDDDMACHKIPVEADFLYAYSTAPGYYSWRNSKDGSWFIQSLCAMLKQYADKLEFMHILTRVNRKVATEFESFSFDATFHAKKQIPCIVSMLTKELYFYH
UniProt P08683: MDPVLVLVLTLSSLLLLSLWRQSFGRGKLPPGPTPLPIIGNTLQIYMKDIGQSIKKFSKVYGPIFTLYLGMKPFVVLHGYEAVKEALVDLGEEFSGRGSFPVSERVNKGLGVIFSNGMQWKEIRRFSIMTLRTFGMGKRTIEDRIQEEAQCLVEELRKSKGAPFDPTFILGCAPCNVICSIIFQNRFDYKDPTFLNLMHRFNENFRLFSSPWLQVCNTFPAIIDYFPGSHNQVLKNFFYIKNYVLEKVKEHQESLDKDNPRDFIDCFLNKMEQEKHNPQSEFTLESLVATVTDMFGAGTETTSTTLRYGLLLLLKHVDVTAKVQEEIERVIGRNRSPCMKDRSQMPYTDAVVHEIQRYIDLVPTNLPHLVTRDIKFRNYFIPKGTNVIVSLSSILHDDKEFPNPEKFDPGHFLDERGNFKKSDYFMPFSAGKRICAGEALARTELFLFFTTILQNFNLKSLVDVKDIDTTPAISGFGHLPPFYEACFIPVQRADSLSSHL
UniProt P48730: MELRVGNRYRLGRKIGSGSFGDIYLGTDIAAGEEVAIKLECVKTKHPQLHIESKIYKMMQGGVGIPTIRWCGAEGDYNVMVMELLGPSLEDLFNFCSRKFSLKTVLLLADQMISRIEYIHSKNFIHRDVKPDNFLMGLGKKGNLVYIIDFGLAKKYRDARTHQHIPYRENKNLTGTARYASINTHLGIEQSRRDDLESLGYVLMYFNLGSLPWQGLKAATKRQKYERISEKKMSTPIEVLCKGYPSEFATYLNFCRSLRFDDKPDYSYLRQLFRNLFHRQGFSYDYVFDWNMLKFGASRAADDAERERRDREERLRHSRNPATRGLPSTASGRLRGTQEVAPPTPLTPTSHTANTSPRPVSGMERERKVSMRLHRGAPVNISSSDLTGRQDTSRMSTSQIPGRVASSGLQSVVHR
UniProt Q14790: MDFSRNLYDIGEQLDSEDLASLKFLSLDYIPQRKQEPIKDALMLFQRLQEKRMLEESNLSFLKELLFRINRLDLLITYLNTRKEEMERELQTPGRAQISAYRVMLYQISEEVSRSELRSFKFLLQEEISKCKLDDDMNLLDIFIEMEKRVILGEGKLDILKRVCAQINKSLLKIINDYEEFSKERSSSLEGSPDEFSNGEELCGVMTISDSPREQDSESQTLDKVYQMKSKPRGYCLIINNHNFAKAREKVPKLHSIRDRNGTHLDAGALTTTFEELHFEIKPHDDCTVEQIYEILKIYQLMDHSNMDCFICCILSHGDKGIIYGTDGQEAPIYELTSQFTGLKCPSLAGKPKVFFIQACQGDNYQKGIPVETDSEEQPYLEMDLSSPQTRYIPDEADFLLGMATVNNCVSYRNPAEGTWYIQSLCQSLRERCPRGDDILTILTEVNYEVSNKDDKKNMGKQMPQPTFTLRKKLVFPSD
UniProt P31749: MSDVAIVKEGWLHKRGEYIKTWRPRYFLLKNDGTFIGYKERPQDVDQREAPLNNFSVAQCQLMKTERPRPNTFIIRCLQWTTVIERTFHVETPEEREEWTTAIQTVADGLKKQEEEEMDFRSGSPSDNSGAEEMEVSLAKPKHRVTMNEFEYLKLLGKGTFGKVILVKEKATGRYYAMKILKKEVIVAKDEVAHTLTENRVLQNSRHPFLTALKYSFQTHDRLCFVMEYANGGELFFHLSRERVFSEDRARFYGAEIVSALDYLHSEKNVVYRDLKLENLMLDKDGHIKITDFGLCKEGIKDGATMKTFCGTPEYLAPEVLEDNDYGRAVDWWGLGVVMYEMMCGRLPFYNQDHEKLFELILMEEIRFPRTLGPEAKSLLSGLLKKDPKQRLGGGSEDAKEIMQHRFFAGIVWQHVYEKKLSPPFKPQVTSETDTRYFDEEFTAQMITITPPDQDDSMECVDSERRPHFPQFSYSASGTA
UniProt P31751: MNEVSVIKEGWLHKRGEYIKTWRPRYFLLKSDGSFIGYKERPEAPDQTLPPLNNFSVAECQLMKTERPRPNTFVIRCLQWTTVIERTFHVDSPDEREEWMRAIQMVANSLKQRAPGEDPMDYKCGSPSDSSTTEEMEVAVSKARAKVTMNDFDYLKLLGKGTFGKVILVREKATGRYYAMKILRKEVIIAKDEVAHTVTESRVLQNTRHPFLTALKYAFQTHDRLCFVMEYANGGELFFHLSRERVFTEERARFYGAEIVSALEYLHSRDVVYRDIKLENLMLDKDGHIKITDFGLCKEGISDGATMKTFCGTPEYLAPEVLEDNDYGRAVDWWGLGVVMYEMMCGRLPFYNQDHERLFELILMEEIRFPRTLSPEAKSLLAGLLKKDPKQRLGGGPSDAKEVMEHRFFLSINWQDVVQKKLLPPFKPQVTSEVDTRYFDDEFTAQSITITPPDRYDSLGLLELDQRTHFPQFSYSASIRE
UniProt P07333, whole entry, looked up: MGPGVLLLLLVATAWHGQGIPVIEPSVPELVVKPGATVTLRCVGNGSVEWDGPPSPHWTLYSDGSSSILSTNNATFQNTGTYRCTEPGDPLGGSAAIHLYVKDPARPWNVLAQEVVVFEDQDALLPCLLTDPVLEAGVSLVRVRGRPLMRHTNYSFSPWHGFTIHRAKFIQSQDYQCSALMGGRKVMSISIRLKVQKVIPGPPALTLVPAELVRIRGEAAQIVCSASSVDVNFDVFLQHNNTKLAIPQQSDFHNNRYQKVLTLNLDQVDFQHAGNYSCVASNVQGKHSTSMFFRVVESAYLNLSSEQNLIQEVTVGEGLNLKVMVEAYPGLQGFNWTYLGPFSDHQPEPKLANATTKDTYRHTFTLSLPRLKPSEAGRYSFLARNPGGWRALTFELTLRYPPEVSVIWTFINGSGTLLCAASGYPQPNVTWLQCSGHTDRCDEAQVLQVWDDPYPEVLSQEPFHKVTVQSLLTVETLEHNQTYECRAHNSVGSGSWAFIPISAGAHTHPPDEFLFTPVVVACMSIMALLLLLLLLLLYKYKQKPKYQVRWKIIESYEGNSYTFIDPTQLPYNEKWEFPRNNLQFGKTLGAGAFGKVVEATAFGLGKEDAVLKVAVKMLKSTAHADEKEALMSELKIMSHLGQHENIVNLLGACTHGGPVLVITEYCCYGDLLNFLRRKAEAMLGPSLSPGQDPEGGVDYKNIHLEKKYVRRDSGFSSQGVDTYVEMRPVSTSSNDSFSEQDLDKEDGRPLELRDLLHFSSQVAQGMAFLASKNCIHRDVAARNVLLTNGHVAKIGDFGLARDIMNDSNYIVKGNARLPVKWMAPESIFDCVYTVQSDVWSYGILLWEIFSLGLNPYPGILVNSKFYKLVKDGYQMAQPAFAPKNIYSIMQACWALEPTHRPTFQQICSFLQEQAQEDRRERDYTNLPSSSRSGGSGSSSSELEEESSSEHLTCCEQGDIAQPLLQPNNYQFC
UniProt P51878: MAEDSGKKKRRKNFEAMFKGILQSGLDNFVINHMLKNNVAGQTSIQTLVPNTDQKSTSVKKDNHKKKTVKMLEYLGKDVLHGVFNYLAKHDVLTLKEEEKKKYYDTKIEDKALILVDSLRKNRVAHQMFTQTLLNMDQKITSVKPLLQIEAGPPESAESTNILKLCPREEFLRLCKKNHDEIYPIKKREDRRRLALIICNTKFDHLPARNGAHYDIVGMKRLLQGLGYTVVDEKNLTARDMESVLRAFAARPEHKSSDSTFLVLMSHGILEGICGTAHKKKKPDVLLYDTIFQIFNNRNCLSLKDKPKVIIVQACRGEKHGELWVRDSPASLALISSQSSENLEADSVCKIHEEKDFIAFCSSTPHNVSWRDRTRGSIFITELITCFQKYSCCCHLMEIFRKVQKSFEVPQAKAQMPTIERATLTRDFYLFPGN

Key:
[1] = molecular target: human CYP1A1, CYP1A1 (gene 1543) (UniProt P04798); test: NVS_ADME_hCYP1A1: NovaScreen (NVS) CYP450-related Enzyme Activity (ADME) Assay for human CYP1A1 (AID 2283100)
How it was run: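 Inhibition of recombinant CYP1A1 turnover was assessed fluorometrically in a biochemical format 1 h after compound exposure. Testing began at 10 uM in duplicate and progressed to concentration series reaching 20 uM, with on-plate positive and negative controls.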

[2] = molecular target: human Caspase 4 (CASP4), CASP4 (gene 837) (UniProt P49662); test: NVS_ENZ_hCASP4: NovaScreen (NVS) Enzymatic Assay for human Caspase 4 (CASP4) (AID 2283143)
How it was run: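 The cell-free assay used E. coli-expressed enzyme with a fluorogenic substrate, read 2 h after dosing. Signal loss was scored versus DMSO. Screening was in duplicate at 25 uM, then singleton concentration-response up to 50 uM.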

[3] = molecular target: human Acid Phosphatase 1 (ACP1), ACP1 (gene 52) (UniProt P24666); test: NVS_ENZ_hACP1: NovaScreen (NVS) Enzymatic Assay for human Acid Phosphatase 1 (ACP1) (AID 2283136)
How it was run: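 Recombinant enzyme expressed in Sf9 cells, tested cell-free; activity read by fluorescence with electrophoretic mobility shift separation of substrate and product, 1.5 h after dosing. Primary screen in duplicate at 25 uM, actives then run in concentration series; loss of signal versus DMSO.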

[4] = molecular target: Cytochrome P450 3A4 (Homo sapiens) (UniProt P08684); test: NVS_ADME_hCYP3A4: NovaScreen (NVS) CYP450-related Enzyme Activity (ADME) Assay for human CYP3A4 (AID 2283110)
How it was run: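 Compounds were first screened in duplicate at 10 uM against recombinant CYP3A4 produced in insect cells, then actives were run in concentration series. Enzyme activity was measured by fluorescence after 0.33 hour, with acetonitrile as baseline.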

Caspase-3 (Homo sapiens) = Caspase-3 (Homo sapiens) (UniProt P42574); test: NVS_ENZ_hCASP3: NovaScreen (NVS) Enzymatic Assay for human Caspase 3 (CASP3) (AID 2283139)
How it was run: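 Recombinant human caspase-3 from E. coli with a fluorogenic substrate, read by fluorescence 1 h after dosing. Primary screen in duplicate at 25 uM. Actives (for example ≥30% inhibition) rerun as concentration-response up to 50 uM.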

[5] = molecular target: rat CYP2C11, Cyp2c11 (gene 29277) (UniProt P08683); test: NVS_ADME_rCYP2C11: NovaScreen (NVS) CYP450-related Enzyme Activity (ADME) Assay for rat CYP2C11 (AID 2283118)
How it was run: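 Cell-free recombinant rat enzyme with fluorescent substrate; readout 0.33 h after dosing, loss of signal versus acetonitrile control. Initial duplicate single-point at 10 uM; actives rerun in concentration series.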

[6] = molecular target: human Casein Kinase 1-delta (CK1D), CSNK1D (gene 1453) (UniProt P48730); test: NVS_ENZ_hCK1D: NovaScreen (NVS) Enzymatic Assay for human Casein Kinase 1-delta (CK1D) (AID 2283148)
How it was run: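 Recombinant human CK1-delta, cell-free; fluorescent substrate with electrophoretic mobility-shift separation of product, read 1 h after dosing. Single 25 uM duplicate screen, then concentration-response up to 50 uM; loss of signal vs DMSO.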

[7] = molecular target: human Caspase 8 (CASP8), CASP8 (gene 841) (UniProt Q14790); test: NVS_ENZ_hCASP8: NovaScreen (NVS) Enzymatic Assay for human Caspase 8 (CASP8) (AID 2283146)
How it was run: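 E. coli-expressed enzyme was used in a cell-free fluorogenic substrate assay read 1 h after dosing. Loss of signal was scored relative to DMSO, and the primary screen was run in duplicate at 25 uM.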

CDK2 (gene 1017) = CDK2 (gene 1017) (UniProt P24941); test: NVS_ENZ_hCDK2: NovaScreen (NVS) Enzymatic Assay for human Cyclin-Cependent Kinase 2 (CDK2) (AID 2283144)
How it was run: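 Cell-free recombinant human CDK2 with fluorescent substrate, product separated by electrophoretic mobility shift; 1 hr read. Primary screen at 25 uM in duplicate, actives retested in concentration-response up to 50 uM; loss of signal versus DMSO.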

[8] = molecular target: human AKT serine/threonine Kinase 1 (AKT1), AKT1 (gene 207) (UniProt P31749); test: NVS_ENZ_hAKT1: NovaScreen (NVS) Enzymatic Assay for human AKT serine/threonine Kinase 1 (AKT1) (AID 2283138)
How it was run: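 Recombinant AKT1, specific substrate, cell-free; 1 h; fluorescence intensity/electrophoretic mobility shift. Duplicate single-point 25 uM, then singleton CRC max 50 uM. DMSO = negative control/baseline; signal loss = inhibition.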

[9] = molecular target: human AKT serine/threonine Kinase 2 (AKT2), AKT2 (gene 208) (UniProt P31751); test: NVS_ENZ_hAKT2: NovaScreen (NVS) Enzymatic Assay for human AKT serine/threonine Kinase 2 (AKT2) (AID 2283141)
How it was run: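 Cell-free fluorescence/electrophoretic mobility shift readout of recombinant human AKT2 activity, 1 h after chemical dosing. Duplicate primary screen at 25 uM, then singleton concentration-response up to 50 uM; loss of signal versus DMSO baseline.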

[10] = molecular target: human Colony Stimulating Factor 1 Receptor (CSF1R), CSF1R (gene 1436) (UniProt P07333); test: NVS_ENZ_hCSF1R: NovaScreen (NVS) Enzymatic Assay for human Colony Stimulating Factor 1 Receptor (CSF1R) (AID 2283150)
How it was run: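 Cell-free recombinant human CSF1R kinase with fluorescent substrate, product separated by electrophoretic mobility shift; read 1 h after dosing. Primary screen at 25 uM in duplicate, actives then in concentration-response up to 50 uM, relative to DMSO.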

[11] = molecular target: human Caspase 5 (CASP5), CASP5 (gene 838) (UniProt P51878); test: NVS_ENZ_hCASP5: NovaScreen (NVS) Enzymatic Assay for human Caspase 5 (CASP5) (AID 2283137)
How it was run: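 E. coli-derived enzyme, cell-free, 2 h incubation, fluorescence intensity. 25 uM duplicate single-point; hits → concentration series to 50 uM. DMSO baseline, positive/negative controls on every plate.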

CC[C@H](NC(=O)c1cc(F)ccc1NS(=O)(=O)c1cccc2cccnc12)c1ccccc1
AC50 [1]: inconclusive: 9.55 µM
AC50 [2]: inconclusive: 41.9 µM

Cc1ccc(N)cc1O
outcome [3]: inactive

CN(C)C(=O)Nc1ccc(Cl)c(Cl)c1
AC50 [3]: inconclusive: 6.24 µM

CCCCCCC=O
AC50 [4]: inconclusive: 1.23 µM

CC(C)=CCCC(C)=CC=O
AC50 [4]: inconclusive: 10 µM
AC50 (Caspase-3 (Homo sapiens)): inconclusive: 0.634 µM

Cc1nn(C)c(Oc2ccccc2)c1C=NOCc1ccc(C(=O)OC(C)(C)C)cc1
AC50 [5]: inconclusive: 10 µM

c1cc[nH]c1
AC50 [4]: inconclusive: 5 µM

CCN(CC)CCNc1ccc(CNC=O)c2sc3ccc(OC)cc3c(=O)c12
AC50 [1]: active: 6.62 µM
AC50 [6]: active: 6.5 µM

CC(C)CCCCCCOC(=O)CCCCC(=O)OCCCCCCC(C)C
AC50 [7]: inconclusive: 39.7 µM

NC(=O)NN=Cc1ccc([N+](=O)[O-])o1
AC50 (Caspase-3 (Homo sapiens)): active: 20.9 µM

CCO[Si](CCCNC(N)=O)(OCC)OCC
AC50 [6]: inconclusive: 0.0828 µM

O=C(c1ccc(O)cc1O)c1ccc(O)cc1O
AC50 (CDK2 (gene 1017)): active: 17 µM
AC50 [6]: active: 17.3 µM

CCN(CC)CCOc1ccc(C(=C(Cl)c2ccccc2)c2ccccc2)cc1
AC50 [8]: inconclusive: 5.03 µM

CCCCc1ccc2c(n1)[C@@H](c1ccc(OC)cc1C[C@H](C)C(=O)O)[C@H](C(=O)O)[C@H]2c1ccc2c(c1)OCO2
outcome [2]: inactive

CCCCCCCCCCCCCCOS(=O)(=O)O
AC50 [8]: active: 14.2 µM
AC50 [9]: active: 13.3 µM

CC(=O)N1CCN(c2ccc(OC[C@H]3CO[C@](Cn4ccnc4)(c4ccc(Cl)cc4Cl)O3)cc2)CC1
outcome [6]: inactive

CC[C@@H]1C[C@H](N(Cc2cc(C(F)(F)F)cc(C(F)(F)F)c2)C(C)=O)c2cc(C(F)(F)F)ccc2N1C(=O)OC(C)C
AC50 [8]: inconclusive: 25 µM

CCN(CC)C(=O)c1cc(S(=O)(=O)Cc2ccccc2)c(N2CCC(c3ccccc3)CC2)cc1N(CC)CCN(C)C
AC50 [8]: inconclusive: 4.64 µM
outcome [2]: inactive
AC50 [7]: inconclusive: 0.486 µM

CCCCCCCC(=O)OC
AC50 [7]: inconclusive: 37.5 µM

c1ccc2[nH]c(-c3cscn3)nc2c1
AC50 (CDK2 (gene 1017)): inconclusive: 0.0943 µM

Nc1ccc(C(=O)O)cc1
AC50 [8]: inconclusive: 25 µM
AC50 [6]: inconclusive: 0.124 µM

Cc1ccc(-c2cc(C(F)(F)F)nn2-c2ccc(S(N)(=O)=O)cc2)cc1
outcome [2]: inactive

O=C(N[C@@H](c1ccccc1)[C@@H]1CCCCN1)c1cccc(C(F)(F)F)c1Cl
outcome [6]: inactive

CCCCCCCCCCO
AC50 (Caspase-3 (Homo sapiens)): inconclusive: 0.149 µM

C=C(C)C(=O)OCCC(F)(F)C(F)(F)C(F)(F)C(F)(F)C(F)(F)C(F)(F)F
AC50 [7]: active: 1.96 µM

CC(C)CCCCCCc1ccc(O)cc1
AC50 [9]: inconclusive: 0.00229 µM
AC50 (CDK2 (gene 1017)): inconclusive: 25 µM
AC50 [10]: inconclusive: 25 µM

C[C@]12CC[C@@H]3c4ccc(O)cc4CC[C@H]3[C@@H]1CC[C@H]2O
AC50 (CDK2 (gene 1017)): inconclusive: 25 µM

O=c1c(O)c(-c2ccc(O)c(O)c2)oc2cc(O)cc(O)c12
AC50 [11]: inconclusive: 40.7 µM
outcome [9]: inactive
outcome [2]: inactive

O=Cc1ccccc1C=O
AC50 [2]: inconclusive: 17.9 µM
AC50 [7]: inconclusive: 7.67 µM

COc1ccc2sc(C(=O)Nc3nnn[nH]3)c(OC(C)C)c2c1
AC50 (CDK2 (gene 1017)): active: 10.1 µM

COc1cccc(-c2ccc(/C=C\CN3CCCCCC3)cc2Cl)c1
AC50 [9]: inconclusive: 22.6 µM

COc1ccc(OC(F)(F)F)cc1CN[C@H]1CCCN[C@H]1c1ccccc1
outcome [8]: inactive

CCCCCCOCCO
outcome [8]: inactive
AC50 [9]: inconclusive: 2.57 µM

O=CCCCC=O
AC50 [8]: active: 25 µM

CN(C)C(=O)NC1(c2ccccc2)CCN(CCC[C@]2(c3ccc(Cl)c(Cl)c3)CCCN(C(=O)c3ccccc3)C2)CC1
AC50 (CDK2 (gene 1017)): inconclusive: 6.25 µM
outcome [6]: inactive

N#C[C@@H]1CC(F)(F)CN1C(=O)CNC1CC2CCC(C1)N2c1ncccn1 (stereo partly specified)
AC50 [6]: inconclusive: 0.877 µM

CCCCCCCCCCCCCCCCO
AC50 [10]: inconclusive: 25 µM

CC(C)(O)c1ccc(CNC(=O)c2cccnc2Oc2ccc3nonc3c2)cc1
outcome [8]: inactive

O=C(O)c1ccccc1C(c1ccc(O)cc1)c1ccc(O)cc1
outcome [6]: inactive

CCOC(=O)O[C@H](C)OC(=O)c1ccc2c(c1)cc(C(=O)NC1CCN(C(C)C)CC1)n2Cc1cc(-c2ccc(Cl)s2)on1
AC50 [9]: active: 23.6 µM

CCN(Cc1cccc(S(=O)(=O)O)c1)c1ccc(C(=C2C=CC(=[N+](CC)Cc3cccc(S(=O)(=O)O)c3)C=C2)c2ccccc2S(=O)(=O)[O-])cc1
AC50 [2]: active: 4.96 µM

CN(C)CCOC(c1ccccc1)c1ccccc1
AC50 [7]: inconclusive: 42.1 µM

O=C(O)c1[nH]n(-c2ccc(S(=O)(=O)O)cc2)c(=O)c1N=Nc1ccc(S(=O)(=O)O)cc1
AC50 [10]: inconclusive: 5.34 µM

CC(C)(C)c1cc(C(C)(C)C)c(O)c(C(C)(C)C)c1
AC50 [11]: inconclusive: 39.9 µM

c1ccc2ccccc2c1
AC50 [9]: inconclusive: 25 µM
outcome [6]: inactive
